From paper PMC12152034
No constants are given. Whether binding was seen depends on the method and setting. Binding seen in cells or lysates may run through a third protein. Some results given as binding are weak or reduced against the parent protein; the word gives no strength.

Chains of the proteins cited; added tags and fusions are not shown.
UniProt Q9H4L4: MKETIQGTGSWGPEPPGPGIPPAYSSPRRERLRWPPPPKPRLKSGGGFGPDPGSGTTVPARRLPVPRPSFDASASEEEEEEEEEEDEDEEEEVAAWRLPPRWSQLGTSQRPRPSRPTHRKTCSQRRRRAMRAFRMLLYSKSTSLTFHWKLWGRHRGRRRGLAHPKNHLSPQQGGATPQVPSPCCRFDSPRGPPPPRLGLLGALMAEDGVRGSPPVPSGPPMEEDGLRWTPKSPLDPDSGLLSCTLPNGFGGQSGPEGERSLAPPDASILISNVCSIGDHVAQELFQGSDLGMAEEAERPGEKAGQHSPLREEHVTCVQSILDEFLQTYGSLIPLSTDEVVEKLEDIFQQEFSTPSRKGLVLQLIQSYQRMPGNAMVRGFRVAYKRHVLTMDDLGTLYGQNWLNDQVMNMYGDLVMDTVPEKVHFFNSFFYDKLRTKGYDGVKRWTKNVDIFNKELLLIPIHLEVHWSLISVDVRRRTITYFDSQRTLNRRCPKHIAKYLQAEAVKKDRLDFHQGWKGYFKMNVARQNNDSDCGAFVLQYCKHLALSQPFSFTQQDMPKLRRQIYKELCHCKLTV
UniProt Q07687: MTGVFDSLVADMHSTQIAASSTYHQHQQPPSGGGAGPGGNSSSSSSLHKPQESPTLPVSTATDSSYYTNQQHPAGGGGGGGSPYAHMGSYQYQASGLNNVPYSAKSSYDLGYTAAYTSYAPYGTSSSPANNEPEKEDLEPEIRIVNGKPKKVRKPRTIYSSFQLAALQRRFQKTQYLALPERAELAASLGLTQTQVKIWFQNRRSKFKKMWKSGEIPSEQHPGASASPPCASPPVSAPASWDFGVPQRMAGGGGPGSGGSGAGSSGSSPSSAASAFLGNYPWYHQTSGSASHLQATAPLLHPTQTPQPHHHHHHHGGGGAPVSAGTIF

Target: SENP3 (human (endogenous in BMSCs)) (UniProt Q9H4L4)
Experiment: co-IP; BMSC lysate incubated with anti-SENP3 or anti-DLX2 antibody at 4 °C overnight, protein A&G beads for 4 h, Western blot

- binding: binds
Substance: DLX2 (from UniProt Q07687 1-328)
